The supplement of paper PMC12067093, “Discovery and optimisation of a covalent ligand for TRIM25 and its application to targeted protein ubiquitination” (Chemical Science, 2025)
The other results are listed elsewhere or left out.

Sequences of proteins named here, by UniProt entry; tags and fusion partners are left off. A change or cut given only in a name is not applied to a line headed by its entry.
UniProt O75592: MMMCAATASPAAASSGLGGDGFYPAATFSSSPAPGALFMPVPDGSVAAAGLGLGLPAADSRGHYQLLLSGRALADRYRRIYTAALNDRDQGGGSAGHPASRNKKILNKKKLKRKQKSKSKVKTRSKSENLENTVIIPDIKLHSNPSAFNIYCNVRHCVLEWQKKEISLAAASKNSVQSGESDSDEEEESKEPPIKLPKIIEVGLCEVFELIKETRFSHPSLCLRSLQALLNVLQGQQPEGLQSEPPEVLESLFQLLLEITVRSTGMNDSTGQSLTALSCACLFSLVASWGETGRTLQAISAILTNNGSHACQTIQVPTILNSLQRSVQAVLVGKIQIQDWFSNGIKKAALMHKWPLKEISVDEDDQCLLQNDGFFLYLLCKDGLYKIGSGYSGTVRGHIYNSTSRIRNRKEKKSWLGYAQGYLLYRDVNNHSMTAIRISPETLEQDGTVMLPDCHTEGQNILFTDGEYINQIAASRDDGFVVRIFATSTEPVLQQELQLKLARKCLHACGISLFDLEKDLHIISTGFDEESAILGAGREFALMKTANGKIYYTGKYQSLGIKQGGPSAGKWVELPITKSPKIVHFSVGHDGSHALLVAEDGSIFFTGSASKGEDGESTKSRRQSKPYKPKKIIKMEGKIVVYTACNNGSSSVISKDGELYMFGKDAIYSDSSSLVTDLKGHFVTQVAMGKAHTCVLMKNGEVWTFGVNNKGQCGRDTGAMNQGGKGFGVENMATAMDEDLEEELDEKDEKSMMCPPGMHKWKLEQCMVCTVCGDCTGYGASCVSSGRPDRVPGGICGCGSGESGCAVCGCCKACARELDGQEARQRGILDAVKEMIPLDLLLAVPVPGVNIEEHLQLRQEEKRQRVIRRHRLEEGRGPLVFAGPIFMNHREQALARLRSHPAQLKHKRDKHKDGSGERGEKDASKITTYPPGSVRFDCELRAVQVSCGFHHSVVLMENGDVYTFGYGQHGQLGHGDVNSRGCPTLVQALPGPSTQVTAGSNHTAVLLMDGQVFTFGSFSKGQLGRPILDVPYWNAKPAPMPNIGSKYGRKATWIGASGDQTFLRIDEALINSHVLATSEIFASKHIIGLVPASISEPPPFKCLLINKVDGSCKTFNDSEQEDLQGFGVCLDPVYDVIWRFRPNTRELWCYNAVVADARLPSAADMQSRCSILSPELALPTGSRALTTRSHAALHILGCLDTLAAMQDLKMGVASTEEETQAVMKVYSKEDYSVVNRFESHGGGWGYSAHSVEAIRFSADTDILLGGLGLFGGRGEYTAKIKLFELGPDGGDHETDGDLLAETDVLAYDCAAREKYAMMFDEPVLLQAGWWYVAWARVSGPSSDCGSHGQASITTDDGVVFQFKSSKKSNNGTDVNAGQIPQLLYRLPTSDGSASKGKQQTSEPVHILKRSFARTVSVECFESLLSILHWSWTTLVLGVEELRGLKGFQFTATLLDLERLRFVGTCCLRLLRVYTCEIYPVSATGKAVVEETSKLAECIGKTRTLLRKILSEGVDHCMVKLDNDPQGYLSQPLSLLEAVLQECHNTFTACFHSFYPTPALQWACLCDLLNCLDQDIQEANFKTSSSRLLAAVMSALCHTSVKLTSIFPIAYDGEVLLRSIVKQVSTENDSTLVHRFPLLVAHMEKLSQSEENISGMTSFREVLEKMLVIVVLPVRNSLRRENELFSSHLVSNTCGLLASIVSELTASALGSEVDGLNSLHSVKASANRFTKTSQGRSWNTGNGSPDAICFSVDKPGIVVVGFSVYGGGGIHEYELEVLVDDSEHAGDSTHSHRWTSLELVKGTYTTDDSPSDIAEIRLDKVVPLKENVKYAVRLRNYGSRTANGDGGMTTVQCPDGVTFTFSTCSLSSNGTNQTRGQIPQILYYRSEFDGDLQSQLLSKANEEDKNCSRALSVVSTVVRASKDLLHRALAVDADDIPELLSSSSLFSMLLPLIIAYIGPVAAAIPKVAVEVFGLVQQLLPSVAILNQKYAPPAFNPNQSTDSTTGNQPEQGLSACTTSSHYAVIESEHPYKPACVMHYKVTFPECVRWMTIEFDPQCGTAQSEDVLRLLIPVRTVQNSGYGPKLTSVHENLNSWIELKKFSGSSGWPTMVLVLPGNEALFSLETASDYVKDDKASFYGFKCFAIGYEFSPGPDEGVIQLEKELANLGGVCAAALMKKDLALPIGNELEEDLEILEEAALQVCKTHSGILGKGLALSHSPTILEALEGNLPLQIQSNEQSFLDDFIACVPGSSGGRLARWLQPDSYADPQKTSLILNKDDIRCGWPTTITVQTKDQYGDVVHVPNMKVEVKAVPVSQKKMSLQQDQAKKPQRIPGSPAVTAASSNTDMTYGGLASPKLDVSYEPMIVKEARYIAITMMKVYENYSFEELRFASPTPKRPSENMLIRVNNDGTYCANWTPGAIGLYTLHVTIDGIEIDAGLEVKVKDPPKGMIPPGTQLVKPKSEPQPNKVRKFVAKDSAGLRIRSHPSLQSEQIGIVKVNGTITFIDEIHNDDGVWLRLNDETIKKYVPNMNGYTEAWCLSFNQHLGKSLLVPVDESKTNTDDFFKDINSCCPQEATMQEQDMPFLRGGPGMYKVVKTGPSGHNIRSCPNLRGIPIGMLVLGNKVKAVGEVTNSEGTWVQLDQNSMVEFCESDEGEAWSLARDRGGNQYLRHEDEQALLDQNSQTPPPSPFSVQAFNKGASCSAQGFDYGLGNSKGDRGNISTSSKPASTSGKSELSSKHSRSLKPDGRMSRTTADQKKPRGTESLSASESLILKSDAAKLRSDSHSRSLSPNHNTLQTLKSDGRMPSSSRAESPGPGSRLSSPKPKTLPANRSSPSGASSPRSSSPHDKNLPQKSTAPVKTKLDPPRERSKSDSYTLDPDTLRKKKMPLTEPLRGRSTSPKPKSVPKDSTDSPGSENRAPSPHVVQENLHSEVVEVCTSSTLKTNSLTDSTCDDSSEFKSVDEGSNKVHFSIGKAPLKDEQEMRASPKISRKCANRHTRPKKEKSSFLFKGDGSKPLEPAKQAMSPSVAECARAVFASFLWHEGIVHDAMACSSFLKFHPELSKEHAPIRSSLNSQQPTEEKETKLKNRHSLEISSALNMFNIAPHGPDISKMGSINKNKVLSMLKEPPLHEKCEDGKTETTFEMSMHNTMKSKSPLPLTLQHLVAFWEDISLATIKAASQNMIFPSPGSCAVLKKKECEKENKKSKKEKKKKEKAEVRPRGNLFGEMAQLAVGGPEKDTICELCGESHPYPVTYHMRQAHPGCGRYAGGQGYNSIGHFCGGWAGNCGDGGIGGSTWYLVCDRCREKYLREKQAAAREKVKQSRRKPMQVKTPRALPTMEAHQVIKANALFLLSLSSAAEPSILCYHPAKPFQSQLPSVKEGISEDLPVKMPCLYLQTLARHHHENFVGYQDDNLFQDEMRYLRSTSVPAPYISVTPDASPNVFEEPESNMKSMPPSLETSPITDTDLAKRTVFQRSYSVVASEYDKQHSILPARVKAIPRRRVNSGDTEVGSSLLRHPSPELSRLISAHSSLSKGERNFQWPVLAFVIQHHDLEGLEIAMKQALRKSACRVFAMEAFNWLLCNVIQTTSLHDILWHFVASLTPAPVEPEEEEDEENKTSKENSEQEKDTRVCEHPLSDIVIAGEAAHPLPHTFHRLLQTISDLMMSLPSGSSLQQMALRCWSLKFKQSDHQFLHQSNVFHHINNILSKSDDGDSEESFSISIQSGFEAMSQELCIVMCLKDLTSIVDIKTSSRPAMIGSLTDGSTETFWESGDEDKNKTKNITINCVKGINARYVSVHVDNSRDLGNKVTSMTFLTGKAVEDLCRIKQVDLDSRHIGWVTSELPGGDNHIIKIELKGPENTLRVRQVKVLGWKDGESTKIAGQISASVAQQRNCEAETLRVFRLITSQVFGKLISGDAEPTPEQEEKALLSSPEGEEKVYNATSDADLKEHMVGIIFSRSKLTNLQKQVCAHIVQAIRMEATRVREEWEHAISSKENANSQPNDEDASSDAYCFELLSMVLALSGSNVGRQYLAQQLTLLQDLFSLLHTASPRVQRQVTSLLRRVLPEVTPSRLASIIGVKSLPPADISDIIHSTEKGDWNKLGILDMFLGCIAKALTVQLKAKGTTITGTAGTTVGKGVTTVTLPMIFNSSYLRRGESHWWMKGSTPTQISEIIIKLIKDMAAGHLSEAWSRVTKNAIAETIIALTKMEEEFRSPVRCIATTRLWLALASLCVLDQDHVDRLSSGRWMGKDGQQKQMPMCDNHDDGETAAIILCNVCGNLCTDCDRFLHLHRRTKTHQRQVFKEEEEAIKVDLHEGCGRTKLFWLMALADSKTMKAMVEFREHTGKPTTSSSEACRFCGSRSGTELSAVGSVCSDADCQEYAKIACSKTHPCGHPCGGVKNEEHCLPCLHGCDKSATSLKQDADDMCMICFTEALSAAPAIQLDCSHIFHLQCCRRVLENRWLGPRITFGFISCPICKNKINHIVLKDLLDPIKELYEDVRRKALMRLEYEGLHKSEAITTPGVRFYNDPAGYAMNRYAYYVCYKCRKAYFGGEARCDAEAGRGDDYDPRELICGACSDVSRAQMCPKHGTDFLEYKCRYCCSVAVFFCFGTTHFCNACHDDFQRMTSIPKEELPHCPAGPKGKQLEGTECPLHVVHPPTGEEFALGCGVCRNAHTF
UniProt Q9Y483: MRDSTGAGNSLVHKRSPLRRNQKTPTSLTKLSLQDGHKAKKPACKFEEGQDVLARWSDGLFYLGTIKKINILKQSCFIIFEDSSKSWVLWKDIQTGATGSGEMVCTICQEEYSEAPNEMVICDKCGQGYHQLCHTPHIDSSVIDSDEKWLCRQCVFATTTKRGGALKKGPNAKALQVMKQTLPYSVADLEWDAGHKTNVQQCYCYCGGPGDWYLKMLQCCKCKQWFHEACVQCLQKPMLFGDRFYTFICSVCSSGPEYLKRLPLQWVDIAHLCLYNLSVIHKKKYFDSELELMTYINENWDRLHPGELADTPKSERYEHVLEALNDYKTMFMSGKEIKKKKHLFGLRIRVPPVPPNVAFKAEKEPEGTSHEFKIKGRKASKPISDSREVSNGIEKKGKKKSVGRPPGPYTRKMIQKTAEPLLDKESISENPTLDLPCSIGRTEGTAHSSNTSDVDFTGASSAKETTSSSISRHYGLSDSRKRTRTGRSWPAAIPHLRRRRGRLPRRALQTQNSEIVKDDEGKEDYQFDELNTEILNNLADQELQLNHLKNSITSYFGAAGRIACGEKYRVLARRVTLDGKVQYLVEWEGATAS
UniProt Q13615: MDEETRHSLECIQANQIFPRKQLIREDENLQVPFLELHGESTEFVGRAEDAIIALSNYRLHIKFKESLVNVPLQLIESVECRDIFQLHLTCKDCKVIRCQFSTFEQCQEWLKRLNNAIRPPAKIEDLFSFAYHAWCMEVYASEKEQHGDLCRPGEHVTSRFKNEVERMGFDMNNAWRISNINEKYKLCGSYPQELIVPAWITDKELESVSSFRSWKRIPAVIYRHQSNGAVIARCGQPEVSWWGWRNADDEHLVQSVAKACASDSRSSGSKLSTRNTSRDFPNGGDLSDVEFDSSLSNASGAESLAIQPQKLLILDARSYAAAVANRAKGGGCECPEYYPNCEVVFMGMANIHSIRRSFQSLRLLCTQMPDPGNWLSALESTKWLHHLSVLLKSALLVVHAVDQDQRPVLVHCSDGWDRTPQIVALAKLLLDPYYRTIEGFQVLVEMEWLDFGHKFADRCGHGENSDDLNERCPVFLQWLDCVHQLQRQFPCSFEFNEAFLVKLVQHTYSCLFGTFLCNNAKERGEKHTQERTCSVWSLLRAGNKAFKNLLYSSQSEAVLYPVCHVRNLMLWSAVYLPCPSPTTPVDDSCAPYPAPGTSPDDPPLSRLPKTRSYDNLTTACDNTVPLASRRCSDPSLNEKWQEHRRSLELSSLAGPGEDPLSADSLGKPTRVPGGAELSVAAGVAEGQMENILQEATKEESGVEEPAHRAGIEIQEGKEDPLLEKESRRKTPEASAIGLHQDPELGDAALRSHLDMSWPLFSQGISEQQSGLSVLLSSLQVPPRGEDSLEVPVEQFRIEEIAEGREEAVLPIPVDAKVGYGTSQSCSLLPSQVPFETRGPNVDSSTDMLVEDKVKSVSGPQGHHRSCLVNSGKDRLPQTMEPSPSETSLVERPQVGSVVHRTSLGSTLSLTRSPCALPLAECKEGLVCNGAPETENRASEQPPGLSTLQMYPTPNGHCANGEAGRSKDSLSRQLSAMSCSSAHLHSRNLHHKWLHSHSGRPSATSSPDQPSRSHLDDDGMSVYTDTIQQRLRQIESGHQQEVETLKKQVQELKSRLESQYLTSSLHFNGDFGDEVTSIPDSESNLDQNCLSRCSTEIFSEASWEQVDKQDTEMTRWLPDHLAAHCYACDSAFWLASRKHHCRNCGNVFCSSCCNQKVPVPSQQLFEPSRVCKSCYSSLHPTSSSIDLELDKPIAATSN

Compound: CC1Cc2ccccc2N1C(=O)C1CCCN(C1)C(=O)CCl (mixture of isomers) [TRIM25 ligand 11 (diastereomer mixture)]
Experiment: probe-labelled cysteine peptide fold change vs DMSO (competition) (log2 fold change); higher = less target engagement (more negative = stronger competition)
Conditions: THP-1, incubation time: 4 h
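Note: competitive chemoproteomic profiling in live THP-1 cells with an iodoacetamide desthiobiotin (IA-DTB) probe, comparing probe-labelled peptide intensities in compound-treated cells against DMSO-treated controls.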

| Target | probe-labelled cysteine peptide fold change (10 µM) | probe-labelled cysteine peptide fold change (50 µM) |
| --- | --- | --- |
| MYCBP2_O75592_2569+2570_DINSCCPQEATMQEQDMPFLR (UniProt O75592) | 0.0437 | -0.504 |
| MTCH2_Q9Y6C9_79_LCSGVLGTVVHGK (UniProt Q9Y6C9) | 0.0436 | -0.0296 |
| MSH6_P52701_559_AYGVCFVDTSLGK (UniProt P52701) | 0.0341 | 0.091 |
| MRPS16_Q9Y3D3_79_HWIGCGAHLSK (UniProt Q9Y3D3) | 0.097 | -0.036 |
| MRPS30_Q9NP92_293_TADPCCYGHTQFHLLPDK (UniProt Q9NP92) | 0.126 | 0.12 |
| MTG1_Q9BT17_51_LVDCIIEVHDAR (UniProt Q9BT17) | -0.00657 | 0.11 |
| MTHFR_P42898_452_VTCLPWNDEPLAAETSLLK (UniProt P42898) | 0.144 | 0.122 |
| MTF2_Q9Y483_219_MLQCCK (UniProt Q9Y483) | 0.0912 | 0.106 |
| MYCBP2_O75592_3824_AVEDLCR (UniProt O75592) | -0.0531 | -0.0509 |
| MTMR3_Q13615_81_ESLVNVPLQLIESVECR (UniProt Q13615) | 0.553 | -0.00809 |
| MTHFD1_P11586_147_GDLNDCFIPCTPK (UniProt P11586) | -0.159 | -0.129 |
| MRPS30_Q9NP92_204_CPVHFYWVR (UniProt Q9NP92) | 0.0926 | 0.276 |
| MYBBP1A_Q9BQG0_890_YCHDLGER (UniProt Q9BQG0) | -0.046 | -0.0464 |
| MRPL53_Q96EL3_49_STNLNCSVIADVR (UniProt Q96EL3) | 0.0678 | 0.0614 |
| MTMR6_Q9Y217_203_CSQPLSGFSAR (UniProt Q9Y217) | 0.00906 | 0.15 |

Looked up above:
For probe-labelled cysteine peptide fold change (50 µM), MTMR3_Q13615_81_ESLVNVPLQLIESVECR (UniProt Q13615) has -0.00809
For probe-labelled cysteine peptide fold change (10 µM), MTF2_Q9Y483_219_MLQCCK (UniProt Q9Y483) has 0.0912
